Laboratory results reported in the supplement of paper PMC10849652.
This is one part of the list.

Amino acid sequences for entries named in this document (tags omitted). A change or cut given only in a name is not applied to a line headed by its entry.
UniProt P50135: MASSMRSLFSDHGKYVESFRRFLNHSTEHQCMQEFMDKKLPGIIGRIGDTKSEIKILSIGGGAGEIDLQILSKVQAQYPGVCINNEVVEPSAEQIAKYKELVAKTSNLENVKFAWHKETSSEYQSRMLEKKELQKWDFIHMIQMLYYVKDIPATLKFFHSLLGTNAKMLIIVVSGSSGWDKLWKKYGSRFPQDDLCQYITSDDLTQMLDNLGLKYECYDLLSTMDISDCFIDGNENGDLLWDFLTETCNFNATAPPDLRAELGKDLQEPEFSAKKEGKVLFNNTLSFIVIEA
UniProt Q9BW72: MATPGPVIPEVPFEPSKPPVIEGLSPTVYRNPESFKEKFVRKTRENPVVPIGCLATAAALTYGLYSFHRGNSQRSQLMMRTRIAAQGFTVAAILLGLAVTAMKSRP
UniProt Q96EW2: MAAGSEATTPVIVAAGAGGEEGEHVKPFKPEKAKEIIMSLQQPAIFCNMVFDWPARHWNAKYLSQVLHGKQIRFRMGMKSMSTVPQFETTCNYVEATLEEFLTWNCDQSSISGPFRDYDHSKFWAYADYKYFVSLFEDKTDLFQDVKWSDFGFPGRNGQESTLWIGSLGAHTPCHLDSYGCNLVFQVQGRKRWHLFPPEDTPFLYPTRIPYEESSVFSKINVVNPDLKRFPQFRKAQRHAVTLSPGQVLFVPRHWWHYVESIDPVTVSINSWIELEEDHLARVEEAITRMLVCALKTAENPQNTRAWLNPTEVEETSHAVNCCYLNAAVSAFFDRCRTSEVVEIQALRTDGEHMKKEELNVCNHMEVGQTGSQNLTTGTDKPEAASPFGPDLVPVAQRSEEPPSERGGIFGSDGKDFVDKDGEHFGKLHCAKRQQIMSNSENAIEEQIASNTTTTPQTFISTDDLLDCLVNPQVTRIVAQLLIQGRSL
UniProt Q9NQG7: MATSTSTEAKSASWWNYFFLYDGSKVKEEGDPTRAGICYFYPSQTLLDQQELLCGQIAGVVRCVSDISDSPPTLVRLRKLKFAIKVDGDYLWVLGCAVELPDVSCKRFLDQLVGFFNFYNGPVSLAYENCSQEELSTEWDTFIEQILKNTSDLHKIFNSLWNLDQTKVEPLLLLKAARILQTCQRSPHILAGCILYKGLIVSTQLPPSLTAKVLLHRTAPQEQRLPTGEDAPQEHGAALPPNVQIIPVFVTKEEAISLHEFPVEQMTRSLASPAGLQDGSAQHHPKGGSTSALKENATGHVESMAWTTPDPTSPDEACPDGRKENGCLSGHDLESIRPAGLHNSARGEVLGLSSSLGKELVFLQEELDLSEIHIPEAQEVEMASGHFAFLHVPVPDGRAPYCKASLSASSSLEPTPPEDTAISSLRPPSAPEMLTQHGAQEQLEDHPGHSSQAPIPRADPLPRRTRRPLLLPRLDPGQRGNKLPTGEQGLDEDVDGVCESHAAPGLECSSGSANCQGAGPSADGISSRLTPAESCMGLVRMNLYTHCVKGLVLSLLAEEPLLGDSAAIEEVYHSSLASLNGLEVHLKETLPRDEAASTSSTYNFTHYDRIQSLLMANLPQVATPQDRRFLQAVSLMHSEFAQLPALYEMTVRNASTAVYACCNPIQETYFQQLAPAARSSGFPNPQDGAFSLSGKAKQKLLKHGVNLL
UniProt Q9NSC5: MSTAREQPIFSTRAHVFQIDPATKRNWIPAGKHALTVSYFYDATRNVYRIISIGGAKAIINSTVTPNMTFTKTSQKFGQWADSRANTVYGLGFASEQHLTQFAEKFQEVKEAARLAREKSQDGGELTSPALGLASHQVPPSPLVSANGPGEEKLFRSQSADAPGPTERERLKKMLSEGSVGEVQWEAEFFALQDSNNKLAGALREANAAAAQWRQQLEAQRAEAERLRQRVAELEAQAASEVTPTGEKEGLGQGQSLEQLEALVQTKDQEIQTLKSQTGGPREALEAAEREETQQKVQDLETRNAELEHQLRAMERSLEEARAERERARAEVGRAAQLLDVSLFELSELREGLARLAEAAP
UniProt P28356, whole entry, looked up: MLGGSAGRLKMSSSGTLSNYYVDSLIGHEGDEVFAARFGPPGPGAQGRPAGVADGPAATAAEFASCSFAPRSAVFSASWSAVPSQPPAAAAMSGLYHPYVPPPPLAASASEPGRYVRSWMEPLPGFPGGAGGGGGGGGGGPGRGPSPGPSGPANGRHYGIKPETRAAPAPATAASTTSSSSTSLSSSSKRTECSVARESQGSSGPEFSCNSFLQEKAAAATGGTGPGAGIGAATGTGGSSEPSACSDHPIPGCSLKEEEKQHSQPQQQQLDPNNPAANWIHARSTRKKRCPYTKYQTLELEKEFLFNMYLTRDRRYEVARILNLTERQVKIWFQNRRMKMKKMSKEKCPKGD
UniProt P30939: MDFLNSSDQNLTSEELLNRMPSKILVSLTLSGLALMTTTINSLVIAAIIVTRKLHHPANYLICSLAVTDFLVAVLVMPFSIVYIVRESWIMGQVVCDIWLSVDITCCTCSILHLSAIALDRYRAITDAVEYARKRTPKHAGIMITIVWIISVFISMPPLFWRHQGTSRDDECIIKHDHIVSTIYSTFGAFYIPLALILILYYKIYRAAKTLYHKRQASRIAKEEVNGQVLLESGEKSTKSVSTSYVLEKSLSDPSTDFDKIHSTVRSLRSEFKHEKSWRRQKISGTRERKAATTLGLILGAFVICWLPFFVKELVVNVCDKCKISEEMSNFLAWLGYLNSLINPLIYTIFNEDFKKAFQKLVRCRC
UniProt P41134: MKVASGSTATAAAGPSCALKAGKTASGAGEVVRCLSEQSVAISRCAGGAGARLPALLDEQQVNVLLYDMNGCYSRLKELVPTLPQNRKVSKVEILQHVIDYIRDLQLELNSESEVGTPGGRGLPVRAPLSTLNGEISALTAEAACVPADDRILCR

Each target was assayed with C#Cc1cccc(Nc2ncnc3cc(OCCOC)c(OCCOC)cc23)c1 [erlotinib] (assay: log2 fold change, soluble protein after heating vs DMSO (PISA); higher = thermal stabilisation; K562 cells, 10 uM, 30 min; active = over 0.2 and 3.5 SD of the protein, either way, in both replicates (recomputed)).
Outline: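 K562 cells at 2×10^6 cells/mL were treated with 10 μM compound for 30 min. Aliquots were heated for 3 min across 48°C-58°C, pooled, and extracted in PBS with 0.5% NP-40 at 4°C; soluble protein was the supernatant after 21,000xg for 90 min. Soluble protein was quantified by TMTpro 16plex LC-MS/MS with channel sums equalised, and reported as log2 fold change in thermal stability against DMSO controls, with values from duplicates.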

log2 fold change, inactive:
HNMT (UniProt P50135) 0.283
HNRNPK isoform 3 (UniProt P61978) 0.101
HIGD2A (UniProt Q9BW72) -0.28
HUWE1, A0A087X1S3 -0.08
HNRNPUL1 (UniProt M0R247) -0.032
HSPBAP1 (UniProt Q96EW2) -0.016
HPS4 isoform 4 (UniProt Q9NQG7) 0.116
HNRNPD (UniProt D6RF44) -0.16
HOMER3 (UniProt Q9NSC5) 0.012
HOXD9 (UniProt P28356) -0.201
ICOSLG isoform 2 (UniProt O75144) -0.256
HUWE1 isoform 2 (UniProt Q7Z6Z7) -0.205
HTR1F (UniProt P30939) -0.015
ID1 (UniProt P41134) -0.255

A portion from the list above, as a working copy:
log2 fold change, inactive:
HIGD2A (UniProt Q9BW72) -0.28
HUWE1, A0A087X1S3 -0.08
